In paper doi:10.1101/146837:
No constants are given. Whether binding was seen depends on the method and setting. Some results given as binding are weak or reduced against the parent protein; the word gives no strength. Sequences can lack the tags named with a protein. Blank lines part the entries; values can stand above or below the binder they belong to.

Target: T1, Mrc1-Flag (subunit of the Mrc1-Tof1-Csm3 complex) (UniProt P25588)
T1 sequence: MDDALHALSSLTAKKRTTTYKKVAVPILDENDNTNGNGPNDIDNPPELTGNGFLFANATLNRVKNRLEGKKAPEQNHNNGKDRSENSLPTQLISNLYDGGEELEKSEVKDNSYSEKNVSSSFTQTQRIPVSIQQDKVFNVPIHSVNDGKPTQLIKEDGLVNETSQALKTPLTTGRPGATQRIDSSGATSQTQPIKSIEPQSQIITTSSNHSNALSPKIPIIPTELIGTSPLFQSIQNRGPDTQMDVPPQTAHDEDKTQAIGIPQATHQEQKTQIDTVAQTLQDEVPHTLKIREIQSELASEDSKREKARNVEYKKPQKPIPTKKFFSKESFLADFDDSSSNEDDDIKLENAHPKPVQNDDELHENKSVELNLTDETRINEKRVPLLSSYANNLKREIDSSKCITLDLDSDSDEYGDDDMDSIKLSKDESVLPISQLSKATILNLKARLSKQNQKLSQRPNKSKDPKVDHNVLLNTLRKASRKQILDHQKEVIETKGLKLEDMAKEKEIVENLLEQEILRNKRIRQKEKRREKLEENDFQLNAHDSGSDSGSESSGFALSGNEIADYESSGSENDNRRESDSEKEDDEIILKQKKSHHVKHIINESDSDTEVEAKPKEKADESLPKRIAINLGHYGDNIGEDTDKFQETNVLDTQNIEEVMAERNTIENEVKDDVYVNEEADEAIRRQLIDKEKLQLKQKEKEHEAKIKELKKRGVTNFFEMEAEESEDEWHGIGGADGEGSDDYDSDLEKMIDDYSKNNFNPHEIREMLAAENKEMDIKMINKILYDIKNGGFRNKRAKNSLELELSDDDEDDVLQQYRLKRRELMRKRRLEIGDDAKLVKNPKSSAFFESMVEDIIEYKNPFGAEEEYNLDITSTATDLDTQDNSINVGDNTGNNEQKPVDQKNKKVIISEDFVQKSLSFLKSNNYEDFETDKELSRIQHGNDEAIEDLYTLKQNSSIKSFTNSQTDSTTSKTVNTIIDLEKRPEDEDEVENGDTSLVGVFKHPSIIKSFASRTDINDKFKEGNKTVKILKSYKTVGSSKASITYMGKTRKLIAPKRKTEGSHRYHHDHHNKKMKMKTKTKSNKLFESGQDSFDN
Assay: co-purification

- binding: binds
B1: His-Csm3 (subunit of the Mrc1-Tof1-Csm3 complex) (protein, UniProt Q04659 1-317)
chain: MDQDFDSLLLGFNDSDSVQKDPTVPNGLDGSVVDPTIADPTAITARKRRPQVKLTAEKLLSDKGLPYVLKNAHKRIRISSKKNSYDNLSNIIQFYQLWAHELFPKAKFKDFMKICQTVGKTDPVLREYRVSLFRDEMGMSFDVGTRETGQDLERQSPMVEEHVTSAEERPIVADSFAQDKRNVNNVDYDNDEDDDIYHLSYRNRRGRVLDERGNNETVLNNVVPPKEDLDALLKTFRVQGPVGLEENEKKLLLGWLDAHRKMEKGSMTEEDVQLIQSLEEWEMNDIEGQHTHYDLLPGGDEFGVDQDELDAMKEMGF

- binding: binds
B2: Tof1, untagged (subunit of the Mrc1-Tof1-Csm3 complex) (protein, UniProt P53840 1-1238)
chain: MSADLQQGTTNAADFSLTVLRARIALLATAIGGPDYTSQIDPPPYKLGDDCLACLKDLKRWFKLVDDQQKRWDVAMAVAEYRILTDDLLPILIDWENKCSLAAKLAKNNPDHEEFRNKAYYDKIALNCLQLLVLMTWPLIVTEQSSSNQITLYGELKKHQLVYKKTILSMESGKVLRAAIRLALDVIKIDRLSRTPRDNMVLKLVLNFFRNVIAIEPGEFTINTKKSMPKKGITSIDTLPPNVSMDDISLNTVISSFHKNKVFGFLLTLTSSLSKEFDQDFINIPLLEIMFYFTKDVNQELLFPRQFETGTHSKVVNKNESSSANNIVTSAGFELSKLLQKEHQMRKNVIKHTSARHSRFGGLLSIQTPDKTRLTVSGSQALVDEKIALQKLDDSKKWNKRIIKKHQSVAAEGLPNSLLNSQTGKAIFFTESNGKHFKEFINNFIDSGFNILLHSVTNYFTTEQDRMVTLEQVEYLLFFAWFVKYQLLRSKIDNSADIKQVSEALKEVTFILVSSLLRSAYDLKNWTVTHAGMIAFNELLNLVSRTKAAQEEDSTDIEFIVSRLFSDERIQLLSNLPKIGSKYSLQFMKSCIELTHSVLKVLEQYSDDKTLVIEGKSRRQKKFNISEGDITKLIEEENVDRDEALDILTSSLRSIEVNFQKVQANYMTEPVIETYINFLERFRELEDDSIKKVFSFFHRVFVQAKEQALLFRFDLIILLREMLSPDGLDRMSRSRKYVSQFSDYFLARLKKRLKKSPAWFVGLLFPPLHNSEVGFYQRYGEYNVLNNESMYAAPASQFKPIPDEEALPPSILLDMKYGVLVSTLLDDGKTELLDQLLKHITHTLDIFKSWLTVNVNAGKETVNPPNEYFTLTGVLNNDPIFKDKDYRALLLLIGYSIPRKINEPCFLPGTVEVSDLTVSCELVKKYLSTPFETPNGLPSSSYLLRVRSEKDSFSHNEQDGWEGDDDYDYNDPYIVPDDQILSKSDAAYFKDLDNNASDKLKGTKFSKGIARSKKKDKRKRRKGEAKTNLPMFGDQDDERPQTVRERHGVFSKEFISDSEDDEDLMNPIFFENETYMRWLLDKNNGQLTEDRYIQFAKFAAERMNNGGVVTGDYTSLFGGSIPSIESIRATESSSFAPDKSLISLASHVASEMSIFDVNNNNNNQLSDDDVNSESRNSLGSSQPSNSQNMFQSEVYSRKESTKRSLEASAADESDEDEEAIRLFGKKSRVVLSQGDSDD
